Source: PubChem BioAssay AID1259405 (NCATS, 2018)

Test: 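Knock-downs that lift recombinant protein yield in hamster ovary cells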 (primary screen)
Cells: Chinese hamster CHO-K1 ovary cells with stable secreted eGFP expression
Reagent: single siRNA against mouse genes, 0.8 pmol siRNA per well (2 µl of 400 nM stock)
Timing: 3 days
Measured: 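Percent of the per-plate non-targeting control median for intracellular GFP per well by laser scanning cytometry and for cell viability by ATP luminescence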
Scale: GFP, % of control: higher = more GFP per well, higher productivity; viability (ATP), % of control: higher = more viable cells (more ATP)
Rule for the call: 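a knock-down is called active if GFP reaches 120% or more of non-targeting control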
The whole screen tested about 50,000 reagents; below is a part drawn at random. About 4,000 of them (8%) were called active. 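Mouse siRNA library applied to hamster cells; one well for each siRNA.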 Reagents against one gene are numbered here.

GFP, % of control	viability (ATP), % of control	Call	gene knocked down	reagent no.
92.8	89.4	inactive	Cfl1 (GeneID 12631)	1
59.8	53.9	inactive	Cfl1 (GeneID 12631)	2
99.4	81.7	inactive	Cfl1 (GeneID 12631)	3
89.3	86.1	inactive	Ahctf1 (GeneID 226747)	1
75.5	79.5	inactive	Ahctf1 (GeneID 226747)	2
49.7	41.8	inactive	Ahctf1 (GeneID 226747)	3
102	121	inactive	Rnmt (GeneID 67897)	1
66.5	97.5	inactive	Rnmt (GeneID 67897)	2
79.6	55.2	inactive	Adgrl3 (GeneID 319387)	1
55.5	65.6	inactive	Adgrl3 (GeneID 319387)	2
37.4	32.3	inactive	Adgrl3 (GeneID 319387)	3
112	86.9	inactive	Pramel12 (GeneID 242736)	1
113	83.7	inactive	Pramel12 (GeneID 242736)	2
81.9	84.2	inactive	Pramel12 (GeneID 242736)	3
79.3	67.8	inactive	Cstad (GeneID 78617)	1
111	94.7	inactive	Cstad (GeneID 78617)	2
103	112	inactive	Cstad (GeneID 78617)	3
95.4	90.3	inactive	Gper1 (GeneID 76854)	1
108	84.9	inactive	Gper1 (GeneID 76854)	2
33.4	31.5	inactive	Gper1 (GeneID 76854)	3
131	66.4	active	Tnp2 (GeneID 21959)	1
82.5	89.3	inactive	Tnp2 (GeneID 21959)	2
135	131	active	Tmtc1 (GeneID 387314)	1
95.7	184	inactive	Tmtc1 (GeneID 387314)	2
79.6	108	inactive	Tmtc1 (GeneID 387314)	3
122	119	active	Fkbp1b (GeneID 14226)	1
75.8	71.6	inactive	Fkbp1b (GeneID 14226)	2
110	90.5	inactive	Fkbp1b (GeneID 14226)	3
122	106	active	Ppp1cc (GeneID 19047)	1
77.6	85	inactive	Ppp1cc (GeneID 19047)	2
82.9	89.9	inactive	Ppp1cc (GeneID 19047)	3
79.8	99.3	inactive	Papss2 (GeneID 23972)	1
82.6	50.2	inactive	Papss2 (GeneID 23972)	2
75	81	inactive	Papss2 (GeneID 23972)	3
88.8	81.3	inactive	Chchd2 (GeneID 14004)	1
112	105	inactive	Chchd2 (GeneID 14004)	2
134	121	active	Chchd2 (GeneID 14004)	3
117	94.9	inactive	Get4 (GeneID 67604)	1
118	112	inactive	Get4 (GeneID 67604)	2
109	78.6	inactive	Get4 (GeneID 67604)	3
59.4	36.7	inactive	Foxk1 (GeneID 17425)	1
22.5	61.7	inactive	Foxk1 (GeneID 17425)	2
74.7	81	inactive	Foxk1 (GeneID 17425)	3
76.7	57.8	inactive	Mrps25 (GeneID 64658)	1
55.7	60.5	inactive	Mrps25 (GeneID 64658)	2
100	89	inactive	Mrps25 (GeneID 64658)	3
118	70.4	inactive	Mrnip (GeneID 68067)	1
36.5	69.8	inactive	Mrnip (GeneID 68067)	2
77	65.6	inactive	Mrnip (GeneID 68067)	3
84.3	60.1	inactive	St6gal1 (GeneID 20440)	1
67.2	83.2	inactive	St6gal1 (GeneID 20440)	2
88.9	79.3	inactive	St6gal1 (GeneID 20440)	3
97.4	102	inactive	Lypd8l (GeneID 78354)	1
98.2	63.2	inactive	Lypd8l (GeneID 78354)	2
72.6	92.2	inactive	Lypd8l (GeneID 78354)	3
85.8	58.8	inactive	Fpr2 (GeneID 14289)	1
73	76.6	inactive	Fpr2 (GeneID 14289)	2
79.1	41.7	inactive	Fpr2 (GeneID 14289)	3
87.5	69.5	inactive	Zfp148 (GeneID 22661)	1
55.1	72.7	inactive	Zfp148 (GeneID 22661)	2
68.3	52.7	inactive	Elk4 (GeneID 13714)	1
122	85.3	active	Elk4 (GeneID 13714)	2
84.9	98.7	inactive	Elk4 (GeneID 13714)	3
37.1	45.7	inactive	Tm4sf1 (GeneID 17112)	1
56.1	77.7	inactive	Tm4sf1 (GeneID 17112)	2
60.5	72.1	inactive	Tm4sf1 (GeneID 17112)	3
35.2	43.7	inactive	Eef1a2 (GeneID 13628)	1
83	87.8	inactive	Eef1a2 (GeneID 13628)	2
43.1	41.7	inactive	Eef1a2 (GeneID 13628)	3
81.5	65.5	inactive	Dsg1a (GeneID 13510)	1
63.3	77.5	inactive	Dsg1a (GeneID 13510)	2
115	109	inactive	T2 (GeneID 21331)	1
96.9	113	inactive	T2 (GeneID 21331)	2
115	87.2	inactive	T2 (GeneID 21331)	3
72.1	98.7	inactive	Hells (GeneID 15201)	1
90.6	76.3	inactive	Hells (GeneID 15201)	2
171	106	active	Hells (GeneID 15201)	3
155	81	active	Fign (GeneID 60344)	1
85.3	104	inactive	Fign (GeneID 60344)	2
103	88.7	inactive	Fign (GeneID 60344)	3
39.1	49.7	inactive	H2-Oa (GeneID 15001)	1
86.2	69.1	inactive	H2-Oa (GeneID 15001)	2
70.8	77.7	inactive	H2-Oa (GeneID 15001)	3
103	88.8	inactive	Tll1 (GeneID 21892)	1
66.2	68.8	inactive	Tll1 (GeneID 21892)	2

Reformatted: entries from further up
{"gene knocked down": "Fign (GeneID 60344)", "reagent no.": 2, "GFP, % of control": 85.3, "viability (ATP), % of control": 104, "Call": "inactive"}
{"gene knocked down": "Fign (GeneID 60344)", "reagent no.": 3, "GFP, % of control": 103, "viability (ATP), % of control": 88.7, "Call": "inactive"}
{"gene knocked down": "H2-Oa (GeneID 15001)", "reagent no.": 1, "GFP, % of control": 39.1, "viability (ATP), % of control": 49.7, "Call": "inactive"}
{"gene knocked down": "H2-Oa (GeneID 15001)", "reagent no.": 2, "GFP, % of control": 86.2, "viability (ATP), % of control": 69.1, "Call": "inactive"}
